Experimental data as given in article PMC11374673, “Discovery of isoquinoline sulfonamides as allosteric gyrase inhibitors with activity against fluoroquinolone-resistant bacteria” (Nature Chemistry, 2024).
Results are given in words; binding and its absence hold for the method and conditions named. Some results given as binding are weak or reduced against the parent protein; the word gives no strength.

Chains of the proteins cited; added tags and fusions are not shown.
UniProt P0AES4: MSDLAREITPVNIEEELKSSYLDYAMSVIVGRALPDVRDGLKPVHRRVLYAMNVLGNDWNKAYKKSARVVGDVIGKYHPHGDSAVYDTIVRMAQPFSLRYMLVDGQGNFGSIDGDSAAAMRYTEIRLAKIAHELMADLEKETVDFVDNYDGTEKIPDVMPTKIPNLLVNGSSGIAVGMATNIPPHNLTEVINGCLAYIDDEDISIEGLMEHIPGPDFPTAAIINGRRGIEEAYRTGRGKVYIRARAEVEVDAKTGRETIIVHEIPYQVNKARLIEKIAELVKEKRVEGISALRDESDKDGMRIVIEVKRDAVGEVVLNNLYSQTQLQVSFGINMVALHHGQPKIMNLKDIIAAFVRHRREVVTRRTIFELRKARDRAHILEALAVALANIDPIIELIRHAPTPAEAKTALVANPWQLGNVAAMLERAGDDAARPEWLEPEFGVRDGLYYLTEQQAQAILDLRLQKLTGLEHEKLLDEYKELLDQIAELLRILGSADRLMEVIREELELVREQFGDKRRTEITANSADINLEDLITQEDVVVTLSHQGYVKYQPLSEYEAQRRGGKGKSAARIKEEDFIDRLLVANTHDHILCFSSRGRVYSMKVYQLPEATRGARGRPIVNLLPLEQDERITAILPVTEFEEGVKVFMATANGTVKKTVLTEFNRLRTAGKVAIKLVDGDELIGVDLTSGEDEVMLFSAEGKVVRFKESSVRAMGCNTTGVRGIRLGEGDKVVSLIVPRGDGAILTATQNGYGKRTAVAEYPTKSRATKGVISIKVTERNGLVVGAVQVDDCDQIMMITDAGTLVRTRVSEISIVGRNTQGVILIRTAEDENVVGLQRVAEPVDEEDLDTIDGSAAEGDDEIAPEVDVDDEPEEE

Target: E. coli DNA gyrase subunit A (GyrA) (E. coli) (UniProt P0AES4)
Experiment: cryo-EM structure; both purified

Substance: E. coli DNA gyrase subunit A (GyrA) (from UniProt P0AES4 1-875) (other; other documents disagree on this pair)
- binding: binds
